Data as given in PubChem BioAssay AID1259308 (NCATS, 2017).
Here is an unselected part of about 59,000 reagents tested. About 1,510 of them (2.6%) were called active. 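Calls use total luciferase alone and ignore viability, so some active siRNAs may act by altering cell number.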 Unmarked entries are inactive. The numbers tell different reagents against one gene apart. Not all columns of the deposit are shown. No sequences are given here.

- Purpose: 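Genes whose loss raises luciferase production in HEK293 cells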 (primary screen)
- Cell system: human HEK293 embryonic kidney cells stably expressing firefly luciferase (HEK-CMV-Luc2-Hygro)
- Knock-down reagent: single siRNA against human genes, 0.8 pmol siRNA per well
- Timing: 72 h
- Measured: 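Reporter luminescence and viable-cell signal on separate replicate plates, given as percent of non-targeting control and median/MAD z-scores, plus per-cell luciferase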
- Reading the numbers: total luciferase, z-score: higher = more reporter protein produced
- Rule for the call: 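Active when the median/MAD z-score for overall luciferase is greater than 3; a gene was taken forward for validation with new siRNAs if at least two of its three siRNAs passed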
- Calls: active = raised luciferase; inactive = no rise

MRC1 (mannose receptor C-type 1) #1
- total luciferase, z-score: 0.282

MRC1 (mannose receptor C-type 1) #2
- total luciferase, z-score: 1.72

MRC1 (mannose receptor C-type 1) #3
- total luciferase, z-score: 1.36

TNRC18P2 (trinucleotide repeat containing 18 pseudogene 2) #1
- total luciferase, z-score: -0.716

TNRC18P2 (trinucleotide repeat containing 18 pseudogene 2) #2
- total luciferase, z-score: -1.48

TNRC18P2 (trinucleotide repeat containing 18 pseudogene 2) #3
- total luciferase, z-score: 0.71

GDA (guanine deaminase) #1
- total luciferase, z-score: 0.624

GDA (guanine deaminase) #2
- total luciferase, z-score: 2.11

GDA (guanine deaminase) #3
- total luciferase, z-score: -0.602

DBN1 (drebrin 1) #1
- total luciferase, z-score: -0.938

DBN1 (drebrin 1) #2
- total luciferase, z-score: -1.28

DBN1 (drebrin 1) #3
- total luciferase, z-score: -0.354

RAD54L2 (RAD54 like 2) #1
- total luciferase, z-score: 2.84

RAD54L2 (RAD54 like 2) #2
- total luciferase, z-score: 0.293

RAD54L2 (RAD54 like 2) #3
- total luciferase, z-score: -0.51

CEP89 (centrosomal protein 89) #1
- total luciferase, z-score: -1.47

CEP89 (centrosomal protein 89) #2
- total luciferase, z-score: 0.282

CEP89 (centrosomal protein 89) #3
- total luciferase, z-score: -0.765

DDAH1 (dimethylarginine dimethylaminohydrolase 1) #1
- total luciferase, z-score: -0.495

DDAH1 (dimethylarginine dimethylaminohydrolase 1) #2
- total luciferase, z-score: -0.0445

DDAH1 (dimethylarginine dimethylaminohydrolase 1) #3
- total luciferase, z-score: 0.0615

3 neighbouring entries already listed, quoted:
CEP89 (centrosomal protein 89) #3
- total luciferase, z-score: -0.765

DDAH1 (dimethylarginine dimethylaminohydrolase 1) #1
- total luciferase, z-score: -0.495

DDAH1 (dimethylarginine dimethylaminohydrolase 1) #2
- total luciferase, z-score: -0.0445
